Laboratory results: the supplement of paper PMC12823440, “Inhibitors supercharge kinase turnover through native proteolytic circuits” (Nature, 2025)
Structures can show the parent of a compound that is named as a salt. This is one part of the list. Hit calls seldom repeat between salt and free forms of one compound.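 In K562 cells expressing nanoluciferase-fused kinases, luminescence was recorded at 4 h intervals between 2 and 18 h, normalized as percent of control with DMSO at 100% and a positive control at 0%. A significant (2 sigma) signal drop marks a time point as decreased. The authors' rule for a hit is not shown and takes in more than the number of time points.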

Amino acid sequences for entries named in this document (tags omitted). A change or cut given only in a name is not applied to a line headed by its entry.
UniProt P00519, whole entry: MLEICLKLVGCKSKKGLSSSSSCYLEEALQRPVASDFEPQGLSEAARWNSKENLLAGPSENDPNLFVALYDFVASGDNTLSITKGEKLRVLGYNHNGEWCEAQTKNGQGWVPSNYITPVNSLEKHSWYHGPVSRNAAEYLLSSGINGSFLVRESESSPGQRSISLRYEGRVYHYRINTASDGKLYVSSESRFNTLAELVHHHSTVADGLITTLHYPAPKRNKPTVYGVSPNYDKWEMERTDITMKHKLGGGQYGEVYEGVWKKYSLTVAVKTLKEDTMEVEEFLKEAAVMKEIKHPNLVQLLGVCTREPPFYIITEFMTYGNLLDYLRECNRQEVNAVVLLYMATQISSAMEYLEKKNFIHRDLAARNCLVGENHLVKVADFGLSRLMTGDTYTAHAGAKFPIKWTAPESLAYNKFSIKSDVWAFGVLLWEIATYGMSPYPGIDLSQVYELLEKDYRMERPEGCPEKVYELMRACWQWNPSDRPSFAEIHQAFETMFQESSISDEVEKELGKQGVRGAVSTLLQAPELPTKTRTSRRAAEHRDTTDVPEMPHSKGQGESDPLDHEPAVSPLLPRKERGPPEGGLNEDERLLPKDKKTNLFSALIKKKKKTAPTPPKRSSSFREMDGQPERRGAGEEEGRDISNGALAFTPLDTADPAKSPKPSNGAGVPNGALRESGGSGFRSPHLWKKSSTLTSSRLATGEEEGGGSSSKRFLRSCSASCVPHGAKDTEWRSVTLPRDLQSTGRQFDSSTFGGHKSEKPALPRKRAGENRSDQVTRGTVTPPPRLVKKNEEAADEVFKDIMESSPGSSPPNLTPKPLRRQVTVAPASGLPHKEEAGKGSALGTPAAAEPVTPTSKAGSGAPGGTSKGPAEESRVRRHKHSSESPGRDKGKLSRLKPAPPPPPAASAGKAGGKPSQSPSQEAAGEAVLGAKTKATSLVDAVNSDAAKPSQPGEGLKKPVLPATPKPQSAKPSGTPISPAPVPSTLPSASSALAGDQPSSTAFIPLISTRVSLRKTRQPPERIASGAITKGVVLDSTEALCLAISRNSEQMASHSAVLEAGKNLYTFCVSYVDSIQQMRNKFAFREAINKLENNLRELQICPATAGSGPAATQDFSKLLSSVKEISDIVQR
UniProt P31749: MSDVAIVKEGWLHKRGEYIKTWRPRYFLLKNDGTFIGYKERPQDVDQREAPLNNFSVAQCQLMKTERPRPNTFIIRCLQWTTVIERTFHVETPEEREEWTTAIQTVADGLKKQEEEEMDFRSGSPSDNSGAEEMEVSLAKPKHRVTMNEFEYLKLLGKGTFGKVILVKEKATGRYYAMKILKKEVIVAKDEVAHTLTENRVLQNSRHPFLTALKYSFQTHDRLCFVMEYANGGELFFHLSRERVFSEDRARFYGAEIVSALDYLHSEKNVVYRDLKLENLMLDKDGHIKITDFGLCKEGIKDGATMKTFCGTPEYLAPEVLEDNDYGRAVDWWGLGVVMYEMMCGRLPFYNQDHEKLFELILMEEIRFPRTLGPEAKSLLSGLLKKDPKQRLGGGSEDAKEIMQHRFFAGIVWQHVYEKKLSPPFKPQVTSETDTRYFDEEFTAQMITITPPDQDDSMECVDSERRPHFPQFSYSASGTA
UniProt Q9UM73: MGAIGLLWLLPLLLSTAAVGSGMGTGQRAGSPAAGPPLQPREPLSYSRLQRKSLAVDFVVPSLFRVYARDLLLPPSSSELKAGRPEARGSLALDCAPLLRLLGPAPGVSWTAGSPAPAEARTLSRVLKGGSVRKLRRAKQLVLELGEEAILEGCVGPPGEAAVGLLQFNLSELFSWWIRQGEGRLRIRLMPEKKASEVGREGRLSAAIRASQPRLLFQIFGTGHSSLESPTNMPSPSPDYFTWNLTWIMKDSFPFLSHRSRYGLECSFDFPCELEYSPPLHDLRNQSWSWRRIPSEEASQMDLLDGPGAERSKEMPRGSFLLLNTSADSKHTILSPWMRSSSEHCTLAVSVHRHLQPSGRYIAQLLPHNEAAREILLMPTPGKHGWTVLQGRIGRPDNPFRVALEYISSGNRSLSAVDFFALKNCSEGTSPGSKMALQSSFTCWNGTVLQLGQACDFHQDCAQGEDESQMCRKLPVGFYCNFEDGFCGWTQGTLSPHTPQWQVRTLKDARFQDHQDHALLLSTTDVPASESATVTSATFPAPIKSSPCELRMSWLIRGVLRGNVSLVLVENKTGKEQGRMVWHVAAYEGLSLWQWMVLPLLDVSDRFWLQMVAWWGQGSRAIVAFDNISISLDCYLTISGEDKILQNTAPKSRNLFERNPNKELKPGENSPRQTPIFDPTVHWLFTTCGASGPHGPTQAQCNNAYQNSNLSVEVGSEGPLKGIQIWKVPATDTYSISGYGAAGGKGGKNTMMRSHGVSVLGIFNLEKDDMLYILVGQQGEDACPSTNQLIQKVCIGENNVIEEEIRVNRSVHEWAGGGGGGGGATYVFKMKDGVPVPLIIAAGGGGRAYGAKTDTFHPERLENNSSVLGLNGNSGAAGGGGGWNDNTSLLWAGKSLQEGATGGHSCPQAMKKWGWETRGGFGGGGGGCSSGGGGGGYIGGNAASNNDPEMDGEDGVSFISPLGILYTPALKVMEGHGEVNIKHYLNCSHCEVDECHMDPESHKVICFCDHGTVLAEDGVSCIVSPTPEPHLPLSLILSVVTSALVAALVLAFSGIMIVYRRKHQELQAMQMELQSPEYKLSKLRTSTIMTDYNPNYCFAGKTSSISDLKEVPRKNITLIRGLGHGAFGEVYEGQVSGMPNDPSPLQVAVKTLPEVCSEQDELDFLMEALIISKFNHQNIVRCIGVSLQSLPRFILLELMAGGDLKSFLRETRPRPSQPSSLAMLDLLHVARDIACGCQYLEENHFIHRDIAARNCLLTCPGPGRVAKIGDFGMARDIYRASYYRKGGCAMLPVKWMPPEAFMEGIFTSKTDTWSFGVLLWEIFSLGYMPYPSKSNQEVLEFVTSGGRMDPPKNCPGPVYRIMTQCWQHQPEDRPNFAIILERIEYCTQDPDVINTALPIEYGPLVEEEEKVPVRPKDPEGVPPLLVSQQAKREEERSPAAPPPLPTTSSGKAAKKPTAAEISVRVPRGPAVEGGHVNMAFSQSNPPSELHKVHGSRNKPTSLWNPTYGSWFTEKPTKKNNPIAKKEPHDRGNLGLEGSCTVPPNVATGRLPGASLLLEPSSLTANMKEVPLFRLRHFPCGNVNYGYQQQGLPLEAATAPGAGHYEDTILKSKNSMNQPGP
UniProt P10398: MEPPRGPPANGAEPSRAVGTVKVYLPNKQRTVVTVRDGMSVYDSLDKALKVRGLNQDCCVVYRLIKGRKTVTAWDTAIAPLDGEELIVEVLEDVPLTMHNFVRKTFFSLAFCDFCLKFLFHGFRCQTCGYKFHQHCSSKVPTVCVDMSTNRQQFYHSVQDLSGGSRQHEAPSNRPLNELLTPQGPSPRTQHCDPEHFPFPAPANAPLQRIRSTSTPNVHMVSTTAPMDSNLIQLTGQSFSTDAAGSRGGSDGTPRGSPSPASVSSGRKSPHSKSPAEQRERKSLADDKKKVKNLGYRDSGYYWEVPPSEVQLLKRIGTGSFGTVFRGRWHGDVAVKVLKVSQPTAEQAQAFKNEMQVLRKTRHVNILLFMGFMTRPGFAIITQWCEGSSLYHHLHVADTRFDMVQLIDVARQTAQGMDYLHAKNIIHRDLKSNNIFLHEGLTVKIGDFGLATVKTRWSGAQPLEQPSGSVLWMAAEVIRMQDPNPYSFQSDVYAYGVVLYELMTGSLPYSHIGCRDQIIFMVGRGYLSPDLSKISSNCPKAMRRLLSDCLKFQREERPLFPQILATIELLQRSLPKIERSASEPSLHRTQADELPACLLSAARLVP
UniProt O14965: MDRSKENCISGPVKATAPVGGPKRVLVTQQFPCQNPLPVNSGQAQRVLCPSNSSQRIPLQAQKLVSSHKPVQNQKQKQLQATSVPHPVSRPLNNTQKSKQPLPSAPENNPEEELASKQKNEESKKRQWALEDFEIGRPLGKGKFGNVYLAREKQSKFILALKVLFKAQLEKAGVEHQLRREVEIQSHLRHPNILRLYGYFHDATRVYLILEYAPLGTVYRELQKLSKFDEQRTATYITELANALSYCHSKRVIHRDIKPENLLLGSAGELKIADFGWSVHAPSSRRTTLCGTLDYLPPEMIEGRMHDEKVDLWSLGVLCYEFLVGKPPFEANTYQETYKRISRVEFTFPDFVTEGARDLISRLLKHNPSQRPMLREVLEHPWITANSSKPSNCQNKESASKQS
UniProt Q96GD4, whole entry: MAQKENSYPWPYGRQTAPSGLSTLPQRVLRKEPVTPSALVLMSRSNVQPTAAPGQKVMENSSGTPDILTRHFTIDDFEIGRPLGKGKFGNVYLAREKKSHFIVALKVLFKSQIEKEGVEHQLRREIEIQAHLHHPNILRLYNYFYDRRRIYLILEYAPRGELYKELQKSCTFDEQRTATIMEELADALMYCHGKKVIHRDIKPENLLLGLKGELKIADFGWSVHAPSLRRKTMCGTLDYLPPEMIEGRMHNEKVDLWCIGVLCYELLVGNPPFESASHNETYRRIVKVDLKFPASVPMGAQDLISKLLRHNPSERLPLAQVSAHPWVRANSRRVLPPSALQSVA
UniProt Q9UQB9: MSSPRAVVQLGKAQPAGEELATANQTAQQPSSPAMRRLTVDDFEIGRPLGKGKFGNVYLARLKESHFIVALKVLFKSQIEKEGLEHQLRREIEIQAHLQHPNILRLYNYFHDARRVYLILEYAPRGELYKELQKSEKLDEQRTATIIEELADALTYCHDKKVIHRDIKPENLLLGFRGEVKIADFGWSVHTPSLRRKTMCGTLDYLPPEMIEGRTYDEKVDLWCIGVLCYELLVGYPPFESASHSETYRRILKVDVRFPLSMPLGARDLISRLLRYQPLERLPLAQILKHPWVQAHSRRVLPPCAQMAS
UniProt P51451: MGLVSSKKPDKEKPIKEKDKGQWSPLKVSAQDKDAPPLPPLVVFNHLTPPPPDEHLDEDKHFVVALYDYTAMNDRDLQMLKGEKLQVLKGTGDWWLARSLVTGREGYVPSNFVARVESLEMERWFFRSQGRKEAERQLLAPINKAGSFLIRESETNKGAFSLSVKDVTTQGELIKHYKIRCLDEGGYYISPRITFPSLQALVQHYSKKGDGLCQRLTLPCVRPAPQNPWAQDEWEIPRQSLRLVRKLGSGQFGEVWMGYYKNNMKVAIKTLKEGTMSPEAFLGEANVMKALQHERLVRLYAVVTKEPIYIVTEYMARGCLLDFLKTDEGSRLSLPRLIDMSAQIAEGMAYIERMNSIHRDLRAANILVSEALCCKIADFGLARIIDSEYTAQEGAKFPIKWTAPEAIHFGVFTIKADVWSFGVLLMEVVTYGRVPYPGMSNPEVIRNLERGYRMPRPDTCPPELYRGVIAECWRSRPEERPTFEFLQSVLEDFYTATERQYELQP
UniProt P51813: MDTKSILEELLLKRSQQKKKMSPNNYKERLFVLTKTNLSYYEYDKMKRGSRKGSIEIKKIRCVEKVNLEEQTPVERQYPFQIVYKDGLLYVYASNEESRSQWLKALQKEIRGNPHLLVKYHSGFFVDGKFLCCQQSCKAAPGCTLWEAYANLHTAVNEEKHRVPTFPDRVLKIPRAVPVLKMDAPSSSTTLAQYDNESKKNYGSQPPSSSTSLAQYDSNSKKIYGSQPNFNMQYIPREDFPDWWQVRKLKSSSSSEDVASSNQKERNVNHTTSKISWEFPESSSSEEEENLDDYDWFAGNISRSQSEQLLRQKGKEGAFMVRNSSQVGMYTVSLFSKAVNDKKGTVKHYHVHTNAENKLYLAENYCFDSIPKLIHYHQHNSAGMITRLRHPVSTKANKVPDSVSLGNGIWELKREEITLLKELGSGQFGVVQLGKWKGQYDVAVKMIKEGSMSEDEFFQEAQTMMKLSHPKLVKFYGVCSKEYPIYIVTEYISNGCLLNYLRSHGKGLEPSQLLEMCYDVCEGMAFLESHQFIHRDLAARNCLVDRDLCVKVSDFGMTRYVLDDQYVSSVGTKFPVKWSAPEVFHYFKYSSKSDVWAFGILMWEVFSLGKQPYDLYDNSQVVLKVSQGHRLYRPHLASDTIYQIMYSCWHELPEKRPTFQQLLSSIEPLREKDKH

Assays:
Test in all cases: kinase-Nluc reporter destabilization hit call (1 = scored as downregulated) (binary); higher = compound decreases kinase abundance
Settings in all cases: K562; 2-18 h
[1] = molecular target: ABL1 (UniProt P00519)
[2] = molecular target: AKT1 (UniProt P31749)
[3] = molecular target: ALK (UniProt Q9UM73)
[4] = molecular target: ARAF (UniProt P10398)
[5] = molecular target: AURKA (UniProt O14965)
[6] = molecular target: AURKB (UniProt Q96GD4)
[7] = molecular target: AURKC (UniProt Q9UQB9)
[8] = molecular target: BLK (UniProt P51451)
[9] = molecular target: BMX (UniProt P51813)
[10] = molecular target: BRAF (UniProt P15056)

Measured: kinase-Nluc reporter destabilization hit call

Cc1c(C(=O)Nc2ccc(Oc3ccnc4cc(OCC(C)(C)O)ccc34)c(F)c2)c(=O)n(-c2ccccc2)n1C [Ningetinib Tosylate] (10 µM)
inactive: [1] 0 | [2] 0 | [3] 0 | [4] 0 | [5] 0 | [6] 0 | [7] 0 | [8] 0 | [9] 0 | [10] 0

O=C1C(=Cc2ccc(O)c(O)c2)Oc2ccccc21 (2.5 µM)
inactive: [1] 0 | [2] 0 | [3] 0 | [4] 0 | [5] 0 | [6] 0 | [7] 0 | [8] 0 | [9] 0 | [10] 0

CC(C)[C@H](CO)Nc1nc(Nc2ccc(C(=O)O)c(Cl)c2)c2ncn(C(C)C)c2n1 [Purvalanol B] (10 µM)
inactive: [1] 0 | [2] 0 | [3] 0 | [4] 0 | [5] 0 | [6] 0 | [7] 0 | [8] 0 | [9] 0 | [10] 0

COc1cc(/C=C/c2ccc(NC(=O)/C=C/c3cc(OC)c(OC)c(OC)c3)cc2)cc(OC)c1 (2.5 µM)
inactive: [1] 0 | [2] 0 | [3] 0 | [4] 0 | [5] 0 | [6] 0 | [7] 0 | [8] 0 | [9] 0 | [10] 0

C[C@@]12CCc3occc3[C@H]1CC[C@@]13C[C@@H](CC[C@H]12)[C@@](O)(CO)C3 [Cafestol] (10 µM)
inactive: [1] 0 | [2] 0 | [3] 0 | [4] 0 | [5] 0 | [6] 0 | [7] 0 | [8] 0 | [9] 0 | [10] 0

CC1=C(C(=O)Nc2ccc3[nH]ncc3c2)C(c2ccc(F)c(C(=O)NCc3ccccn3)c2)NC(=O)N1 (stereo not given) (10 µM)
inactive: [1] 0 | [2] 0 | [3] 0 | [4] 0 | [5] 0 | [6] 0 | [7] 0 | [8] 0 | [9] 0 | [10] 0

C=CC(=O)Nc1cccc(Oc2nc(Nc3ccc(N4CCN(C)CC4)cc3)ncc2Cl)c1 (2.5 µM)
inactive: [1] 0 | [2] 0 | [3] 0 | [4] 0 | [5] 0 | [6] 0 | [7] 0 | [8] 0 | [9] 0 | [10] 0

N#Cc1cn([C@@H]2O[C@H](CO)[C@@H](O)[C@H]2O)c2nc[nH]c(=O)c12 [Jaspamycin] (10 µM)
inactive: [1] 0 | [2] 0 | [3] 0 | [4] 0 | [5] 0 | [6] 0 | [7] 0 | [8] 0 | [9] 0 | [10] 0

CCCCCC1CC1CC1CC1CCCCCCCC(=O)O (stereo not given) (10 µM)
inactive: [1] 0 | [2] 0 | [3] 0 | [4] 0 | [5] 0 | [6] 0 | [7] 0 | [8] 0 | [9] 0 | [10] 0

C=CC(=O)N[C@H]1CCOC[C@H]1Nc1ncc2cc(-c3c(Cl)c(OC)cc(OC)c3Cl)ccc2n1 [Fisogatinib] (10 µM)
inactive: [1] 0 | [2] 0 | [3] 0 | [4] 0 | [5] 0 | [6] 0 | [7] 0 | [8] 0 | [9] 0 | [10] 0

COc1ccc(-c2cnc3c(-c4cccc5ncccc45)cnn3c2)cc1 (10 µM)
inactive: [1] 0 | [2] 0 | [3] 0 | [4] 0 | [5] 0 | [6] 0 | [7] 0 | [8] 0 | [9] 0 | [10] 0

O=C(CC(c1ccccc1)C(C(=O)O)C(=O)O)c1ccc(C(F)(F)F)cc1 (stereo not given) (10 µM)
inactive: [1] 0 | [2] 0 | [3] 0 | [4] 0 | [5] 0 | [6] 0 | [7] 0 | [8] 0 | [9] 0 | [10] 0

COC(=O)c1cc2c(OC(C)C)cc(OC(C)C)cc2[nH]1 (2.5 µM)
inactive: [1] 0 | [2] 0 | [3] 0 | [4] 0 | [5] 0 | [6] 0 | [7] 0 | [8] 0 | [9] 0 | [10] 0

C=CC(=O)N1CCN(c2nc(OC[C@@H]3CCCN3C)nc3c2CCN(c2cccc4cccc(C)c24)C3)C[C@@H]1CC#N (2.5 µM)
inactive: [1] 0 | [2] 0 | [3] 0 | [4] 0 | [5] 0 | [6] 0 | [7] 0 | [8] 0 | [9] 0 | [10] 0

O=S(=O)(N=Cc1c(O)ccc2ccccc12)c1cccs1 (10 µM)
inactive: [1] 0 | [2] 0 | [3] 0 | [4] 0 | [5] 0 | [6] 0 | [7] 0 | [8] 0 | [9] 0 | [10] 0

CCC(=O)N1CC[C@H](Nc2ncnc3c2CN(c2cnc(OC)c(C(F)(F)F)c2)CC3)C1 [Leniolisib] (10 µM)
inactive: [1] 0 | [2] 0 | [3] 0 | [4] 0 | [5] 0 | [6] 0 | [7] 0 | [8] 0 | [9] 0 | [10] 0

CN(C)CCCn1cc(C2=C(c3c[nH]c4ccccc34)C(=O)NC2=O)c2ccccc21 [Bisindolylmaleimide I] (2.5 µM)
inactive: [1] 0 | [2] 0 | [3] 0 | [4] 0 | [5] 0 | [6] 0 | [7] 0 | [8] 0 | [9] 0 | [10] 0

Cn1sc(=O)n(Cc2ccccc2)c1=O (10 µM)
inactive: [1] 0 | [2] 0 | [3] 0 | [4] 0 | [5] 0 | [6] 0 | [7] 0 | [8] 0 | [9] 0 | [10] 0

CC(C)n1nc(C#Cc2ccccc2)c2c(N)ncnc21 (10 µM)
inactive: [1] 0 | [2] 0 | [3] 0 | [4] 0 | [5] 0 | [6] 0 | [7] 0 | [8] 0 | [9] 0 | [10] 0

C[C@@H]1CC[C@]2(C(=O)O)CC[C@]3(C)C(=CC[C@@H]4[C@@]5(C)CC[C@H](O)[C@@](C)(CO)[C@@H]5CC[C@]43C)[C@@H]2[C@]1(C)O [Rotundic acid] (10 µM)
inactive: [1] 0 | [2] 0 | [3] 0 | [4] 0 | [5] 0 | [6] 0 | [7] 0 | [8] 0 | [9] 0 | [10] 0

At a glance, 7 of the compounds above.
C=CC(=O)N1CCN(c2nc(OC[C@@H]3CCCN3C)nc3c2CCN(c2cccc4cccc(C)c24)C3)C[C@@H]1CC#N (2.5 µM)
inactive: [1] 0 | [2] 0 | [3] 0 | [4] 0 | [5] 0 | [6] 0 | [7] 0 | [8] 0 | [9] 0 | [10] 0

O=S(=O)(N=Cc1c(O)ccc2ccccc12)c1cccs1 (10 µM)
inactive: [1] 0 | [2] 0 | [3] 0 | [4] 0 | [5] 0 | [6] 0 | [7] 0 | [8] 0 | [9] 0 | [10] 0

CCC(=O)N1CC[C@H](Nc2ncnc3c2CN(c2cnc(OC)c(C(F)(F)F)c2)CC3)C1 [Leniolisib] (10 µM)
inactive: [1] 0 | [2] 0 | [3] 0 | [4] 0 | [5] 0 | [6] 0 | [7] 0 | [8] 0 | [9] 0 | [10] 0

CN(C)CCCn1cc(C2=C(c3c[nH]c4ccccc34)C(=O)NC2=O)c2ccccc21 [Bisindolylmaleimide I] (2.5 µM)
inactive: [1] 0 | [2] 0 | [3] 0 | [4] 0 | [5] 0 | [6] 0 | [7] 0 | [8] 0 | [9] 0 | [10] 0

Cn1sc(=O)n(Cc2ccccc2)c1=O (10 µM)
inactive: [1] 0 | [2] 0 | [3] 0 | [4] 0 | [5] 0 | [6] 0 | [7] 0 | [8] 0 | [9] 0 | [10] 0

CC(C)n1nc(C#Cc2ccccc2)c2c(N)ncnc21 (10 µM)
inactive: [1] 0 | [2] 0 | [3] 0 | [4] 0 | [5] 0 | [6] 0 | [7] 0 | [8] 0 | [9] 0 | [10] 0

C[C@@H]1CC[C@]2(C(=O)O)CC[C@]3(C)C(=CC[C@@H]4[C@@]5(C)CC[C@H](O)[C@@](C)(CO)[C@@H]5CC[C@]43C)[C@@H]2[C@]1(C)O [Rotundic acid] (10 µM)
inactive: [1] 0 | [2] 0 | [3] 0 | [4] 0 | [5] 0 | [6] 0 | [7] 0 | [8] 0 | [9] 0 | [10] 0

Next part.

Cc1ccc(-c2csc(Cn3nc(CC4OCCCO4)c4ccccc4c3=O)n2)cc1 (10 µM)
inactive: [1] 0 | [2] 0 | [3] 0 | [4] 0 | [5] 0 | [6] 0 | [7] 0 | [8] 0 | [9] 0 | [10] 0

Oc1ccc2ccccc2c1SSc1c(O)ccc2ccccc12 (10 µM)
inactive: [1] 0 | [2] 0 | [3] 0 | [4] 0 | [5] 0 | [6] 0 | [7] 0 | [8] 0 | [9] 0 | [10] 0

Cc1cc(=O)[nH]c(=S)[nH]1 [Methylthiouracil] (10 µM)
inactive: [1] 0 | [2] 0 | [3] 0 | [4] 0 | [5] 0 | [6] 0 | [7] 0 | [8] 0 | [9] 0 | [10] 0

C[C@@H](N)COc1ccc(-c2cnc3ccc(N[C@H](C)c4cccc(F)c4)nn23)cc1 [Taletrectinib] (2.5 µM)
inactive: [1] 0 | [2] 0 | [3] 0 | [4] 0 | [5] 0 | [6] 0 | [7] 0 | [8] 0 | [9] 0 | [10] 0

CC(C)(C)NS(=O)(=O)c1cncc(-c2cc(F)c3nc(N)nn3c2)c1 (10 µM)
inactive: [1] 0 | [2] 0 | [3] 0 | [4] 0 | [5] 0 | [6] 0 | [7] 0 | [8] 0 | [9] 0 | [10] 0

Nc1n[nH]c(N)c1N=Nc1ccc(O)cc1 (10 µM)
inactive: [1] 0 | [2] 0 | [3] 0 | [4] 0 | [5] 0 | [6] 0 | [7] 0 | [8] 0 | [9] 0 | [10] 0

CC(C)(C)c1ccc(C(=O)Nc2cn3cc(-n4ccnc4)ccc3n2)cc1 (10 µM)
inactive: [1] 0 | [2] 0 | [3] 0 | [4] 0 | [5] 0 | [6] 0 | [7] 0 | [8] 0 | [9] 0 | [10] 0

CCCCNc1ncc2c(-c3ccc(CN4CCN(C)CC4)cc3)cn([C@H]3CC[C@H](O)CC3)c2n1 [UNC2025 (hydrochloride)] (2.5 µM)
inactive: [1] 0 | [2] 0 | [3] 0 | [4] 0 | [5] 0 | [6] 0 | [7] 0 | [8] 0 | [9] 0 | [10] 0
